Assay results taken from the supplement of paper PMC10849652.
The list shows a part of the results.

Protein sequences, listed by entry. Tags and fused reporters are not part of them. Lines headed by an entry give the natural chain unless they say otherwise; changes in a name come on top.
UniProt P11831: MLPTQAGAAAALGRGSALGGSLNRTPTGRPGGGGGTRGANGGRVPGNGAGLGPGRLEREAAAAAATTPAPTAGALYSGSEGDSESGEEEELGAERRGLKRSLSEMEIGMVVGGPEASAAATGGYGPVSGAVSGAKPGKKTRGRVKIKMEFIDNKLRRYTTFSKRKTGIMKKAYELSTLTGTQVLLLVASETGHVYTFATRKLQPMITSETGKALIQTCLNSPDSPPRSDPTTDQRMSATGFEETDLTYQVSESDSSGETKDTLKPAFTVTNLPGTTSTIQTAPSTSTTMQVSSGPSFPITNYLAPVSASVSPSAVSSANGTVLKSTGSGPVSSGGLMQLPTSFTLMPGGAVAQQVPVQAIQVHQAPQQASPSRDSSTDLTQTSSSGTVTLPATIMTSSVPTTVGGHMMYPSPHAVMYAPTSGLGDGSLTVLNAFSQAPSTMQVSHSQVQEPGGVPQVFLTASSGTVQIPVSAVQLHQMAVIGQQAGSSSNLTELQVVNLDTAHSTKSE
UniProt Q9UBP0: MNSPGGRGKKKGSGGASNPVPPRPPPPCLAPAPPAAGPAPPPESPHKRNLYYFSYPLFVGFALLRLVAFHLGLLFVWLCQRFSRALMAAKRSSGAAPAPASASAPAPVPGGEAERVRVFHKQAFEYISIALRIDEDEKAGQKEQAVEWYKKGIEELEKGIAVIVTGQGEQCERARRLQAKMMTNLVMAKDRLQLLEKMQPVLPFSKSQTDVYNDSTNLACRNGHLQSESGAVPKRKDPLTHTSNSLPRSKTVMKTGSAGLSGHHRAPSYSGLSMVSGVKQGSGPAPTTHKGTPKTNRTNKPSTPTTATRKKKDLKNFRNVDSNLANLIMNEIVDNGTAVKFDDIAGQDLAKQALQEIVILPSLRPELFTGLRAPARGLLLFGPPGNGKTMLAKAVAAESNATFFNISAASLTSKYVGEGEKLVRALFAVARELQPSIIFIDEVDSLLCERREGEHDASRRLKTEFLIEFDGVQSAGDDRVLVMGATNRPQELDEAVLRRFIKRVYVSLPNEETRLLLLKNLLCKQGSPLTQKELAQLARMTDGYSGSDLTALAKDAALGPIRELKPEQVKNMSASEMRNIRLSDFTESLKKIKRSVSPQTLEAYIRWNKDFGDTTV
UniProt P49458: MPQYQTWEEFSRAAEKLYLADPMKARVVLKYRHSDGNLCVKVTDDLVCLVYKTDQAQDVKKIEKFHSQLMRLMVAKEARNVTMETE
UniProt Q16384, whole entry, looked up: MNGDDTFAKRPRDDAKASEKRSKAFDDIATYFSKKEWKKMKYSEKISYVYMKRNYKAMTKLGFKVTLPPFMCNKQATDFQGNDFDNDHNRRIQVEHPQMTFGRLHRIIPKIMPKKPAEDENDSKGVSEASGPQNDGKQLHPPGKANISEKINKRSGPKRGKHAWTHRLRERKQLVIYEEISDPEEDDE
UniProt Q8NCJ5: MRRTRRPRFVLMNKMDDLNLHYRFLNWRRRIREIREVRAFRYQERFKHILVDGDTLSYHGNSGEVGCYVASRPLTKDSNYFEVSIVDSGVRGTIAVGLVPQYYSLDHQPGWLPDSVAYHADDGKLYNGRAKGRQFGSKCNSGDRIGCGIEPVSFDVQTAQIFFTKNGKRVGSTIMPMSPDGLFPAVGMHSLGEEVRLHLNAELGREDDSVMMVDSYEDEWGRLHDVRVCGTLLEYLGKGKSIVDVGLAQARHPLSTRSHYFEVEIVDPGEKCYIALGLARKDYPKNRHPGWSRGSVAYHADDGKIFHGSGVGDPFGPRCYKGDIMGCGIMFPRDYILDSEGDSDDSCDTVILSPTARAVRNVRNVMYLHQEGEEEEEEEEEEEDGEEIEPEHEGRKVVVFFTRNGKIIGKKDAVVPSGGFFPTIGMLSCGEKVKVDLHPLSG
UniProt Q96SB4, whole entry, looked up: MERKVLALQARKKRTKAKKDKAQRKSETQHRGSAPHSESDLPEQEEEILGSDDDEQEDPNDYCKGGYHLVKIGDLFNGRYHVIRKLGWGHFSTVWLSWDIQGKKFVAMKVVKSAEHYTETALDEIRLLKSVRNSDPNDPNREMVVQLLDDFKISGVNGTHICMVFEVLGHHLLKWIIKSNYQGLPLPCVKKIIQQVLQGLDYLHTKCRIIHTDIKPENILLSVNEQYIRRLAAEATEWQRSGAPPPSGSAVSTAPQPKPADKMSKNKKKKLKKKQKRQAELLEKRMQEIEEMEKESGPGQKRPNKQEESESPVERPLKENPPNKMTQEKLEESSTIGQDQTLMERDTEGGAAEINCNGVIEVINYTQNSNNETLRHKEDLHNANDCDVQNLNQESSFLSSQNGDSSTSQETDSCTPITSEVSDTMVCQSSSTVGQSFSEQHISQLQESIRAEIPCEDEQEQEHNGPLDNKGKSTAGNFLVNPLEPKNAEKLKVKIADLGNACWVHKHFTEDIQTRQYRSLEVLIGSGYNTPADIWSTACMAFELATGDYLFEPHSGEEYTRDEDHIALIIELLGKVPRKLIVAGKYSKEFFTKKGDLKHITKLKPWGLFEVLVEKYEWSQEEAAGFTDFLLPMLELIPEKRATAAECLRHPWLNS
UniProt Q9BUA3: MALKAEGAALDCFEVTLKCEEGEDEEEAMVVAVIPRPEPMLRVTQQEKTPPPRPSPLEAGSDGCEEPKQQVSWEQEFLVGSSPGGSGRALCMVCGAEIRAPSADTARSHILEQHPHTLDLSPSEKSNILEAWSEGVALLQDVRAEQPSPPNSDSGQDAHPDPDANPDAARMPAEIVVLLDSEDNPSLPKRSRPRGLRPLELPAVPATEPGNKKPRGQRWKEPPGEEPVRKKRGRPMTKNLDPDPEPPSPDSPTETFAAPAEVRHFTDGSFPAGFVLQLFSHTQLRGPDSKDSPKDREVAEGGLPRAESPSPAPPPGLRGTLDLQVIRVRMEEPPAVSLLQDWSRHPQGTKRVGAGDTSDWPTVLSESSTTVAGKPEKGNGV
UniProt Q96T58, whole entry, looked up: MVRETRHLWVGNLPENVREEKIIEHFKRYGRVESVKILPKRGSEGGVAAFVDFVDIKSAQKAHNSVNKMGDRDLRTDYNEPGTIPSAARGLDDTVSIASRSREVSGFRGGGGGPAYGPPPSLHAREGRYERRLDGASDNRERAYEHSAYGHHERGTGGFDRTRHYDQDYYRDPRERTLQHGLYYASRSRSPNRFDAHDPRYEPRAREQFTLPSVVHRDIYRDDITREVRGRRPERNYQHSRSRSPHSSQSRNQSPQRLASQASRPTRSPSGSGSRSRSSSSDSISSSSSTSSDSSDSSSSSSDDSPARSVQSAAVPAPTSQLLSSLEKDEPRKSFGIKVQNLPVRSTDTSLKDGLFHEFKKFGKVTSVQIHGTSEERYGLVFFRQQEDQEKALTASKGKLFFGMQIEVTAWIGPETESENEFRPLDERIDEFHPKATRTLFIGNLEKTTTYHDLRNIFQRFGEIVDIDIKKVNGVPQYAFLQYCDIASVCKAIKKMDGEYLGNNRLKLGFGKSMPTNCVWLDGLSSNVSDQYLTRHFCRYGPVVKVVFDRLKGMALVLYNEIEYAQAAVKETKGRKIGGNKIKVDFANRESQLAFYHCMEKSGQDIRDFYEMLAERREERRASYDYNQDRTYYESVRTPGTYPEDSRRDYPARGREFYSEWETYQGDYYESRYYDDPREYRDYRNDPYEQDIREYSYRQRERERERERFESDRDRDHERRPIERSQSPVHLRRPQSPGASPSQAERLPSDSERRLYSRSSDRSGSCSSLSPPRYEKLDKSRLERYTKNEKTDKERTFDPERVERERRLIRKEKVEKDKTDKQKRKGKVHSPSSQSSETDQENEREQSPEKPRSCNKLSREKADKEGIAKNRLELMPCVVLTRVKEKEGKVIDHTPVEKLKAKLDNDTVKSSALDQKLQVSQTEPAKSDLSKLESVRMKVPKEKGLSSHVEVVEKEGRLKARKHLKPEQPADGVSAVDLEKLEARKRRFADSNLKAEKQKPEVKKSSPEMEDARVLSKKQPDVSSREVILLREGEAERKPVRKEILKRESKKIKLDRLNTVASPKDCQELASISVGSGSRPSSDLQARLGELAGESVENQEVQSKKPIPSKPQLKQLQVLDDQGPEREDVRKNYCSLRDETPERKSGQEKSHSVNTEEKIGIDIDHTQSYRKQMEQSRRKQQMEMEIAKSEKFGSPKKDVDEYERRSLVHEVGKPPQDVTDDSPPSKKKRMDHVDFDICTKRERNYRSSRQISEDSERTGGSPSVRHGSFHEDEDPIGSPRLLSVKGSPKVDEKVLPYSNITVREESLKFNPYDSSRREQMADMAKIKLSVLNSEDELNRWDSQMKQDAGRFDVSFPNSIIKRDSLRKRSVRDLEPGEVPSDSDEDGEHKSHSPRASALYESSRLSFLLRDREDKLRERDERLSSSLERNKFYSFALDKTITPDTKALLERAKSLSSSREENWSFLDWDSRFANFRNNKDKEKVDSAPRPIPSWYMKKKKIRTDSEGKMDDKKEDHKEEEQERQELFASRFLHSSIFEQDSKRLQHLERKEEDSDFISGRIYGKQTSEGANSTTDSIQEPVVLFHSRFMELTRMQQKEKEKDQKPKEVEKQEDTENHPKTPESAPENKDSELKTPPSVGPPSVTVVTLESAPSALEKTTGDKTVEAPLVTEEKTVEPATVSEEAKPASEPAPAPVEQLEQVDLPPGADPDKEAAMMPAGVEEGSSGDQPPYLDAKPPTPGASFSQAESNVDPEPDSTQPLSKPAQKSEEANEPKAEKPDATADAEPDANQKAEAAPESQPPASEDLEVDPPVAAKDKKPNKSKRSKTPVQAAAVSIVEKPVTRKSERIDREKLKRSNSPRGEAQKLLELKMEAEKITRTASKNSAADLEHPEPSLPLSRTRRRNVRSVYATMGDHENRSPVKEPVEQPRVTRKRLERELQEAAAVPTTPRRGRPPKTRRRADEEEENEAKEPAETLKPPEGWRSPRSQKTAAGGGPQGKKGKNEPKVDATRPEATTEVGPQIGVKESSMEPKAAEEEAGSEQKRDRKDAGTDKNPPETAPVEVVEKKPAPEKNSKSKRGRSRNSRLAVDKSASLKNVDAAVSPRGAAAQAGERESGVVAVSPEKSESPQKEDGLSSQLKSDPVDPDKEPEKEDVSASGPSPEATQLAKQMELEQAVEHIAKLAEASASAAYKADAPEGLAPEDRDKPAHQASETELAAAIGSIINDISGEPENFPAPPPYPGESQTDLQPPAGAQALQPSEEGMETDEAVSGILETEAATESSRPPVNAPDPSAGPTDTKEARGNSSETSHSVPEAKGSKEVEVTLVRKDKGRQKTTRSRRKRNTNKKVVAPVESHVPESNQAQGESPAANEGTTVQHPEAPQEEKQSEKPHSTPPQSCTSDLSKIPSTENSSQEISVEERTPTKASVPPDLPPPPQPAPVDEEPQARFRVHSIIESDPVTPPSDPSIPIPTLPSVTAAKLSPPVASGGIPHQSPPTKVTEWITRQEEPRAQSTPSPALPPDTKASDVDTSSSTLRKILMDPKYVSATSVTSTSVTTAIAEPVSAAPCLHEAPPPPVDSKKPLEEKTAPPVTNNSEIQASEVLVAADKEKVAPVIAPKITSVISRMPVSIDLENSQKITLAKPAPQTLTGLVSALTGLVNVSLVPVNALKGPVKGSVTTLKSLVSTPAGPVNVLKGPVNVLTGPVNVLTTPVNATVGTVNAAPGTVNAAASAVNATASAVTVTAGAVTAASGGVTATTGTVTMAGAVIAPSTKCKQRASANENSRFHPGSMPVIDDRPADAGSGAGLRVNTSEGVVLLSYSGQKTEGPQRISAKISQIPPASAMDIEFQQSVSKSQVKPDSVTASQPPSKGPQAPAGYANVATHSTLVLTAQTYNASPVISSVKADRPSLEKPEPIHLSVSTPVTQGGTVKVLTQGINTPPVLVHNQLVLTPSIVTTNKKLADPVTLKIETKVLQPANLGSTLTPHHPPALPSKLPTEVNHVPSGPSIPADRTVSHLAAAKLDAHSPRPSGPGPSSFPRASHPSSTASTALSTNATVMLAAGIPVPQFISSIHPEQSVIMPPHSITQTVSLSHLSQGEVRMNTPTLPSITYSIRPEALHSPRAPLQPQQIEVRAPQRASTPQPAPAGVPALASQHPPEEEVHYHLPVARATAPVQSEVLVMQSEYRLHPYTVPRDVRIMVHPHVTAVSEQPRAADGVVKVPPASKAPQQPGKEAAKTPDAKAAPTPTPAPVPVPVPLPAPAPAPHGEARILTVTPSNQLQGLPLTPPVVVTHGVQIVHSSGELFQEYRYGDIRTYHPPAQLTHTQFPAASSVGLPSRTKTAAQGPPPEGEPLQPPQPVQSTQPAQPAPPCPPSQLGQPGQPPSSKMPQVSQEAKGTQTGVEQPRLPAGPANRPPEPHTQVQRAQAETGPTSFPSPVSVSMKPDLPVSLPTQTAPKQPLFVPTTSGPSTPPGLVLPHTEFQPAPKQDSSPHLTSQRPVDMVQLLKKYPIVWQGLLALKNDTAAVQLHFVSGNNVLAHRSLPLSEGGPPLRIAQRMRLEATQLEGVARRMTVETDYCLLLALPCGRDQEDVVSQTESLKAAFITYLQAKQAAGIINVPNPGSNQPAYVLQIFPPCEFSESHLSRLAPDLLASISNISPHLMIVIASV

Assays:
Experiment in all cases: log2 fold change, soluble protein after heating vs DMSO (PISA); higher = thermal stabilisation; K562 lysate, 10 uM; active = over 0.2 and 3.5 SD of the protein, either way, in both replicates (recomputed)
alvocidib = compound: CN1CC[C@H](c2c(O)cc(O)c3c(=O)cc(-c4ccccc4Cl)oc23)[C@H](O)C1 [alvocidib]
In short: (§1)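 A 30 min treatment with 10 μM compound was applied to crude K562 extract at 1 mg/mL protein in PBS pH 7.4 with 1 mM MgCl2. Heating for 3 min spanned 48°C-58°C, after which aliquots were pooled, adjusted to 0.5% NP-40 at 4°C and spun at 21,000xg for 90 min. TMTpro 16plex LC-MS/MS of the supernatant, with channel sums equalised, gave values recorded as log-two fold change in thermal stability against solvent controls, from duplicates.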

Tubastatin A = compound: CN1CCc2c(c3ccccc3n2Cc2ccc(C(=O)NO)cc2)C1 [Tubastatin A]
In short: as §1

[1] = compound: CNC(=O)C1=CC=CC=C1NC2=NC(=NC=C2Cl)NC3=C(C=C(C=C3)N4CCOCC4)OC
In short: as §1

defactinib = compound: CNC(=O)c1ccc(Nc2ncc(C(F)(F)F)c(NCc3nccnc3N(C)S(C)(=O)=O)n2)cc1 [defactinib]
In short: as §1

[2] = compound: CNc1nc(-c2ccc3c(N)n[nH]c3c2)cc(N2C[C@@H](C(=O)NC3CCCCC3)CC[C@H]2C)n1
In short: as §1

encorafenib = compound: COC(=O)N[C@@H](C)CNc1nccc(-c2cn(C(C)C)nc2-c2cc(Cl)cc(NS(C)(=O)=O)c2F)n1 [encorafenib]
In short: as §1

[3] = compound: COC(=O)[C@H](CCSC)NC(=O)C1=C(C=C(C=C1)NC[C@H](CS)N)C2=CC=CC=C2
In short: as §1

alisertib = compound: COc1cc(Nc2ncc3c(n2)-c2ccc(Cl)cc2C(c2c(F)cccc2OC)=NC3)ccc1C(=O)O [alisertib]
In short: as §1

[4] = compound: COc1cc2nc(-c3cc(F)ccc3O)nc(N[C@@H]3CNC[C@H]3C(C)(C)O)c2cc1OC
In short: as §1

gefitinib = compound: COc1cc2ncnc(Nc3ccc(F)c(Cl)c3)c2cc1OCCCN1CCOCC1 [gefitinib]
In short: as §1

Measured: log2 fold change

SREBF2 (UniProt Q12772)
inactive: alvocidib -0.045 | Tubastatin A -0.033 | [1] -0.016 | defactinib -0.112 | [2] -0.012 | encorafenib -0.057 | [3] -0.002 | alisertib 0.025 | [4] 0.053 | gefitinib 0.058

SSR4 (UniProt P51571)
inactive: alvocidib 0.024 | Tubastatin A 0.022 | [1] -0.019 | defactinib 0.019 | [2] 0.002 | encorafenib -0.034 | [3] 0 | alisertib -0.018 | [4] 0.011 | gefitinib -0.061

STARD10 (UniProt Q9Y365)
inactive: alvocidib 0.039 | Tubastatin A 0.109 | [1] -0.089 | defactinib 0.125 | [2] -0.089 | encorafenib -0.014 | [3] 0.044 | alisertib -0.041 | [4] -0.021 | gefitinib 0.031

SRF (UniProt P11831)
inactive: alvocidib 0.077 | Tubastatin A 0.038 | [1] 0.036 | defactinib 0.099 | [2] -0.02 | encorafenib 0.159 | [3] 0.096 | alisertib -0.069 | [4] -0.036 | gefitinib -0.089

SPAST (UniProt Q9UBP0)
inactive: alvocidib 0.003 | Tubastatin A 0.013 | [1] -0.024 | defactinib -0.001 | [2] -0.017 | encorafenib 0.042 | [3] -0.019 | alisertib -0.034 | [4] -0.007 | gefitinib -0.035

STAU2 (UniProt Q9NUL3)
inactive: alvocidib 0.004 | Tubastatin A -0.133 | [1] 0.028 | defactinib 0.008 | [2] 0.025 | encorafenib 0.026 | [3] -0.004 | alisertib -0.008 | [4] 0.01 | gefitinib -0.011

SPECC1L (UniProt Q69YQ0)
inactive: alvocidib 0.097 | Tubastatin A 0.049 | [1] -0.005 | defactinib 0.052 | [2] 0.005 | encorafenib -0.011 | [3] -0.037 | alisertib 0.049 | [4] 0.005 | gefitinib -0.003

SSR1 (UniProt P43307)
inactive: alvocidib -0.027 | Tubastatin A 0.029 | [1] -0.025 | defactinib 0.022 | [2] 0.03 | encorafenib -0.004 | [3] -0.011 | alisertib 0.066 | [4] -0.007 | gefitinib 0.013

SRP9 (UniProt P49458)
inactive: alvocidib 0.013 | Tubastatin A 0.023 | [1] -0.006 | defactinib 0.01 | [2] -0.03 | encorafenib -0.005 | [3] 0.008 | alisertib 0.017 | [4] -0.02 | gefitinib -0.021

SSX1 (UniProt Q16384)
inactive: alvocidib -0.065 | Tubastatin A -0.09 | [1] 0.278 | defactinib 0.061 | [2] -0.112 | encorafenib 0.047 | [3] -0.016

Eight neighbouring records from above, quoted:
SSR4 (UniProt P51571)
inactive: alvocidib 0.024 | Tubastatin A 0.022 | [1] -0.019 | defactinib 0.019 | [2] 0.002 | encorafenib -0.034 | [3] 0 | alisertib -0.018 | [4] 0.011 | gefitinib -0.061

STARD10 (UniProt Q9Y365)
inactive: alvocidib 0.039 | Tubastatin A 0.109 | [1] -0.089 | defactinib 0.125 | [2] -0.089 | encorafenib -0.014 | [3] 0.044 | alisertib -0.041 | [4] -0.021 | gefitinib 0.031

SRF (UniProt P11831)
inactive: alvocidib 0.077 | Tubastatin A 0.038 | [1] 0.036 | defactinib 0.099 | [2] -0.02 | encorafenib 0.159 | [3] 0.096 | alisertib -0.069 | [4] -0.036 | gefitinib -0.089

SPAST (UniProt Q9UBP0)
inactive: alvocidib 0.003 | Tubastatin A 0.013 | [1] -0.024 | defactinib -0.001 | [2] -0.017 | encorafenib 0.042 | [3] -0.019 | alisertib -0.034 | [4] -0.007 | gefitinib -0.035

STAU2 (UniProt Q9NUL3)
inactive: alvocidib 0.004 | Tubastatin A -0.133 | [1] 0.028 | defactinib 0.008 | [2] 0.025 | encorafenib 0.026 | [3] -0.004 | alisertib -0.008 | [4] 0.01 | gefitinib -0.011

SPECC1L (UniProt Q69YQ0)
inactive: alvocidib 0.097 | Tubastatin A 0.049 | [1] -0.005 | defactinib 0.052 | [2] 0.005 | encorafenib -0.011 | [3] -0.037 | alisertib 0.049 | [4] 0.005 | gefitinib -0.003

SSR1 (UniProt P43307)
inactive: alvocidib -0.027 | Tubastatin A 0.029 | [1] -0.025 | defactinib 0.022 | [2] 0.03 | encorafenib -0.004 | [3] -0.011 | alisertib 0.066 | [4] -0.007 | gefitinib 0.013

SRP9 (UniProt P49458)
inactive: alvocidib 0.013 | Tubastatin A 0.023 | [1] -0.006 | defactinib 0.01 | [2] -0.03 | encorafenib -0.005 | [3] 0.008 | alisertib 0.017 | [4] -0.02 | gefitinib -0.021

Additional entries follow.

ST6GAL1 (UniProt P15907)
inactive: alvocidib 0.014 | Tubastatin A 0.045 | [1] 0.04 | defactinib 0.112 | [2] 0.002 | encorafenib -0.109 | [3] -0.02 | alisertib 0.026 | [4] -0.032 | gefitinib 0

SPRYD3 (UniProt Q8NCJ5)
inactive: alvocidib 0.214 | Tubastatin A -0.301 | [1] 0.172

SPNS1 (UniProt Q9H2V7)
inactive: alvocidib -0.118 | Tubastatin A 0.034 | [1] 0.06 | defactinib 0.095 | [2] -0.03 | encorafenib 0.019 | [3] -0.031 | alisertib 0.047 | [4] 0.019 | gefitinib -0.015

SREK1 isoform 2 (UniProt Q8WXA9)
inactive: alvocidib -0.064 | Tubastatin A 0.011 | [1] -0.02 | defactinib -0.024 | [2] 0.031 | encorafenib -0.005 | [3] 0.005 | alisertib 0.023 | [4] -0.023 | gefitinib -0.044

SRPK1 (UniProt Q96SB4)
inactive: Tubastatin A -0.062 | [1] 0.189 | defactinib 0.106 | [2] 0.008 | encorafenib -0.029 | [3] 0.102 | alisertib 0.006 | [4] 0.015 | gefitinib 0.018
active: alvocidib 0.286

SPG21 (UniProt Q9NZD8)
inactive: alvocidib -0.005 | Tubastatin A -0.069 | [1] -0.021 | defactinib 0.01 | [2] -0.074 | encorafenib 0.024 | [3] 0.067 | alisertib 0.011 | [4] -0.011 | gefitinib 0.006

SSB (UniProt E7ERC4)
inactive: alvocidib 0.132 | Tubastatin A 0.154 | [1] -0.072 | defactinib -0.285 | [2] -0.023 | encorafenib 0.081 | [3] 0.013 | alisertib -0.091 | [4] 0.095 | gefitinib 0.072

SSBP2 (UniProt P81877)
inactive: alvocidib -0.116 | Tubastatin A 0.138 | [1] 0.06 | defactinib -0.087 | [2] 0.233 | encorafenib -0.253 | [3] -0.166

SRSF1 (UniProt Q07955)
inactive: alvocidib 0.001 | Tubastatin A -0.006 | [1] -0.015 | defactinib -0.037 | [2] 0.065 | encorafenib 0.012 | [3] 0.012 | alisertib -0.015 | [4] -0.004 | gefitinib 0.013

SPDL1 (UniProt Q96EA4)
inactive: alvocidib -0.036 | Tubastatin A -0.033 | [1] 0.032 | defactinib 0.036 | [2] -0.016 | encorafenib -0.005 | [3] 0.011 | alisertib 0.005 | [4] -0.01 | gefitinib -0.019

SPN (UniProt P16150)
inactive: alvocidib 0.018 | Tubastatin A 0.057 | [1] -0.03 | defactinib -0.017 | [2] 0.011 | encorafenib 0.011 | [3] -0.051 | alisertib 0.018 | [4] -0.005 | gefitinib -0.002

SRBD1 (UniProt Q8N5C6)
inactive: alvocidib 0.063 | Tubastatin A -0.081 | [1] 0.081 | defactinib 0.126 | [2] -0.031 | encorafenib 0.103 | [3] -0.007 | alisertib -0.019 | [4] -0.069 | gefitinib -0.06

STIM1 (UniProt Q13586)
inactive: alvocidib 0.008 | Tubastatin A -0.056 | [1] -0.041 | defactinib -0.018 | [2] 0.024 | encorafenib 0.003 | [3] -0.016 | alisertib 0.008 | [4] -0.106 | gefitinib -0.013

SRSF9 (UniProt Q13242)
inactive: alvocidib -0.021 | Tubastatin A -0.165 | [1] 0.002 | defactinib -0.054 | [2] -0.044 | encorafenib 0 | [3] -0.084 | alisertib -0.013 | [4] -0.017 | gefitinib -0.022

SPATA5 (UniProt Q8NB90)
inactive: alvocidib 0.033 | Tubastatin A -0.101 | [1] 0.007 | defactinib 0.029 | [2] 0.085 | encorafenib 0.04 | [3] 0.008 | alisertib 0.025 | [4] 0.004 | gefitinib -0.024

SQLE (UniProt Q14534)
active: Tubastatin A 0.377 | [3] 0.437
inactive: alvocidib 0.003 | [1] 0.018 | defactinib -0.009 | [2] -0.022 | encorafenib 0.002 | alisertib 0.059 | [4] -0.015 | gefitinib -0.045

SPINDOC (UniProt Q9BUA3)
inactive: alvocidib -0.026 | Tubastatin A 0.035 | [1] 0.078 | defactinib 0.016 | [2] 0.097 | encorafenib -0.006 | [3] 0.084 | alisertib 0.16 | [4] -0.002 | gefitinib -0.197

SPEN (UniProt Q96T58)
inactive: alvocidib -0.057 | Tubastatin A -0.028 | [1] 0.045 | defactinib -0.017 | [2] -0.025 | encorafenib 0.067 | [3] -0.025 | alisertib 0.086 | [4] -0.033 | gefitinib -0.015

SPIRE1 (UniProt Q08AE8)
inactive: alvocidib -0.101 | Tubastatin A 0.02 | [1] 0.038 | defactinib -0.024 | [2] 0.084 | encorafenib -0.046 | [3] -0.036 | alisertib 0.02 | [4] 0.076 | gefitinib 0.049

ST7 (UniProt Q9NRC1)
inactive: alvocidib 0.026 | Tubastatin A -0.079 | [1] -0.018 | defactinib 0.022 | [2] 0.049 | encorafenib 0.098 | [3] -0.095 | alisertib 0.078 | [4] -0.08 | gefitinib -0.098

SRRM2 (UniProt Q9UQ35)
inactive: alvocidib -0.124 | Tubastatin A 0.03 | [1] 0.011 | defactinib -0.027 | [2] 0.064 | encorafenib 0.053 | [3] 0.007 | alisertib 0.002 | [4] 0.014 | gefitinib -0.009
